For this experiment, the target named is CR2 (UniProt P20023). The experiment in a line: structure of the complex.

Sequences of proteins named here, by UniProt entry; tags and fusion partners are left off. A change or cut given only in a name is not applied to a line headed by its entry. Residues count along the entry.
UniProt P20023, residues 21-153: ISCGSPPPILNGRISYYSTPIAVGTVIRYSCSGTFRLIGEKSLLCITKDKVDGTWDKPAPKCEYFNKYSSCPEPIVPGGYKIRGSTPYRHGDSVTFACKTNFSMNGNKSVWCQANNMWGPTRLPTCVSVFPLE
UniProt P03200: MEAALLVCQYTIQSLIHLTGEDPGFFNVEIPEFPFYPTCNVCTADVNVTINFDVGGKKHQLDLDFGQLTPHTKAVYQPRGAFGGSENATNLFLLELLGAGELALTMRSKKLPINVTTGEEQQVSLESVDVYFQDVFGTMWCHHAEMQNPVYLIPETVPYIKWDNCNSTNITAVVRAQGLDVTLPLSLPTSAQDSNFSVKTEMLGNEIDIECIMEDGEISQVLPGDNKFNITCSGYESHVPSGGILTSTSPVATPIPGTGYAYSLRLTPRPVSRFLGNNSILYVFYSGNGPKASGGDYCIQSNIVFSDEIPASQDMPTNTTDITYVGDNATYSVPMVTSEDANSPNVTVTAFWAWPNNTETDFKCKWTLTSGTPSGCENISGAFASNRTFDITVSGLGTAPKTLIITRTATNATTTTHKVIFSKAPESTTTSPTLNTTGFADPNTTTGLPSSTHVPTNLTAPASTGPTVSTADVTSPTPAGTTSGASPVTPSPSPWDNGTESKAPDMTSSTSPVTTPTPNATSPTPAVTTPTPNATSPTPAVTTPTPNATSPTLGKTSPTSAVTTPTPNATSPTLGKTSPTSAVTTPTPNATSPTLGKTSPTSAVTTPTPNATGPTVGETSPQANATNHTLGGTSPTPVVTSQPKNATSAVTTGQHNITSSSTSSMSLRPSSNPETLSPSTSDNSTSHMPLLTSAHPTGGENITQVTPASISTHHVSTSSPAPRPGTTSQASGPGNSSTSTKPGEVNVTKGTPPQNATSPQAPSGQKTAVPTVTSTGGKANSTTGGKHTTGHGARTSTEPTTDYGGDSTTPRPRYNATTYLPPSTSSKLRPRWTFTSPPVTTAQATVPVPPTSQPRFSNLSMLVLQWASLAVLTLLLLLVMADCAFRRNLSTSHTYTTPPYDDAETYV

Results are given in words; binding and its absence hold for the method and conditions named. Some results given as binding are weak or reduced against the parent protein; the word gives no strength.

Regarding “EBV gp350 protein (GenBank: AIM62208.1) (from UniProt P03200 2-425) (ligand)”, the binding entry is on record as “binds”.

The values are drawn from patent US20200190168A1.
